Here are results for one molecule from publication doi:10.1101/2020.01.08.898304 (bioRxiv, 2020).

Sequences of proteins named here, by UniProt entry; tags and fusion partners are left off. A change or cut given only in a name is not applied to a line headed by its entry.
UniProt Q9EPI6: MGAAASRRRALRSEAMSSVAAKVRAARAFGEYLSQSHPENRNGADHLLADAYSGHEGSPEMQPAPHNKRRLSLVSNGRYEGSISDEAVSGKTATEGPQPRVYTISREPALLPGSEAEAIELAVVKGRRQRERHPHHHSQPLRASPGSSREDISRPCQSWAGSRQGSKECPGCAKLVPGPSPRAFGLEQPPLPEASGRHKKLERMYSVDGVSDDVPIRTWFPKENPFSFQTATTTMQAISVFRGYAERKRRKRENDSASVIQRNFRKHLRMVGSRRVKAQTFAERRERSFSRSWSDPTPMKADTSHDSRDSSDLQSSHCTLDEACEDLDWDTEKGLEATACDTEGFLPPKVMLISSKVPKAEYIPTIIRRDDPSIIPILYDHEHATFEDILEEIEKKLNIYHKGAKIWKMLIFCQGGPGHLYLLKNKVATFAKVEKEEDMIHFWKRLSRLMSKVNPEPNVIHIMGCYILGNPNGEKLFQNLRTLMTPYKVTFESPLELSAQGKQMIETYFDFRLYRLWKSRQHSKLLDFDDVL

No constants are given. Whether binding was seen depends on the method and setting. In cells and extracts the contact can be indirect. Binding calls can cover weak binding; strength is not graded here. Where a sequence is shown, tags or fusion partners need not be part of it.

The assay concerns the target ΔMyr-Jacob-L175A-V176A-GFP (UniProt Q9EPI6). Briefly: co-IP.

B1: GST-LMO4 (natural protein, UniProt P61968 1-165, looked up)
chain: MVNPGSSSQPPPVTAGSLSWKRCAGCGGKIADRFLLYAMDSYWHSRCLKCSCCQAQLGDIGTSCYTKSGMILCRNDYIRLFGNSGACSACGQSIPASELVMRAQGNVYHLKCFTCSTCRNRLVPGDRFHYINGSLFCEHDRPTALINGHLNSLQSNPLLPDQKVC
Turning to B1, the binding result was “binds weakly”.
